# Test results taken from the supplement of paper PMC10849652.
# Amino acid sequences for entries named in this document (tags omitted). A change or cut given only in a name is not applied to a line headed by its entry.
# UniProt Q9NXG2: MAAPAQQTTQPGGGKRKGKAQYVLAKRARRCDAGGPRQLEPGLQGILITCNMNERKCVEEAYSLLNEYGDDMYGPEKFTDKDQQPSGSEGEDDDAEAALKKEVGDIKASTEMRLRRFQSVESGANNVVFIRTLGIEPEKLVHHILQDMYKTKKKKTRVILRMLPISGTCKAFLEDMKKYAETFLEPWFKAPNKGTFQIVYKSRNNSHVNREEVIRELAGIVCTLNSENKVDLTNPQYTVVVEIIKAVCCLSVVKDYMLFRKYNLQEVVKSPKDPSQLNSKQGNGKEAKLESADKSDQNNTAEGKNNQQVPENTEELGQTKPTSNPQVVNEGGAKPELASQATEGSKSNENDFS
# UniProt O43493: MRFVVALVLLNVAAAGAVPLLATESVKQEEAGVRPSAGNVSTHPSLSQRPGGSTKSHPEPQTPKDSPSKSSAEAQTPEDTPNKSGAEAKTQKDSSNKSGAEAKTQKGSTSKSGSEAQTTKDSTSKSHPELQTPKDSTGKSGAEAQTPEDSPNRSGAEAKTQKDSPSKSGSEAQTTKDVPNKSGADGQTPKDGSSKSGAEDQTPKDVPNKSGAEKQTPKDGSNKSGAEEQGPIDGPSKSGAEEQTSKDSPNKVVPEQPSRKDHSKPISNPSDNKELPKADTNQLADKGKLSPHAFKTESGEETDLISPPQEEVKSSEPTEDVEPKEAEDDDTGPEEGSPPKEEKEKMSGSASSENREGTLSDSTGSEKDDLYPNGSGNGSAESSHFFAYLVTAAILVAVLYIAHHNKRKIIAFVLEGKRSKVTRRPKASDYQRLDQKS
# UniProt Q9NPL8: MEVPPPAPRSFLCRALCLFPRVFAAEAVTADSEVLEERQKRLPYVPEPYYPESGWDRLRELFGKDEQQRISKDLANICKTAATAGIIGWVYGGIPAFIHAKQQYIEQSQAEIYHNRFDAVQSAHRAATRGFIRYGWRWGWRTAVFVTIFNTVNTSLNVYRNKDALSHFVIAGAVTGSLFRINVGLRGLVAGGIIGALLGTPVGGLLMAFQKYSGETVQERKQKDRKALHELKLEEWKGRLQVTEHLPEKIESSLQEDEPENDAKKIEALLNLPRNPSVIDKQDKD
# UniProt Q9H061: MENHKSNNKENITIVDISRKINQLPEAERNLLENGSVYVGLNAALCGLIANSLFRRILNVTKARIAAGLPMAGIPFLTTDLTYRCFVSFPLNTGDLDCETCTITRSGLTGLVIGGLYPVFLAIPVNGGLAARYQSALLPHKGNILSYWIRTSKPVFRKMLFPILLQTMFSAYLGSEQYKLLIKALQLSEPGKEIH
# UniProt Q9BXJ8: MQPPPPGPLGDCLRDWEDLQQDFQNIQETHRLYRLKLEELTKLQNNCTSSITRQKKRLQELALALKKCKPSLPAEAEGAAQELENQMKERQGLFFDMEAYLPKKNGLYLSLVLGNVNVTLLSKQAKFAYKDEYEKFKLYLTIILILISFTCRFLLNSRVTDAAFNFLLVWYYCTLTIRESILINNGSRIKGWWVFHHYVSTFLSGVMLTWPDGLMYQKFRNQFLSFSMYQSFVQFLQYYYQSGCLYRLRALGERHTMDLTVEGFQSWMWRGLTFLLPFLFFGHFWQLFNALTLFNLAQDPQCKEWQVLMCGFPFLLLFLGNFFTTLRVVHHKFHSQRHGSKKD
# UniProt Q9BVK8: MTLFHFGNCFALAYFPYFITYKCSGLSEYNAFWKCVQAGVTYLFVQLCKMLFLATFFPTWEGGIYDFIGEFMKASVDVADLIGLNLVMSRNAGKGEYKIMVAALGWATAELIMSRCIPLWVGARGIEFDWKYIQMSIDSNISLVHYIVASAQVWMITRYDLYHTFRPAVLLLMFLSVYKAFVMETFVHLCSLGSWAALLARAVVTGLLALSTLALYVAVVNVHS
# UniProt Q8IUC6, whole entry, looked up: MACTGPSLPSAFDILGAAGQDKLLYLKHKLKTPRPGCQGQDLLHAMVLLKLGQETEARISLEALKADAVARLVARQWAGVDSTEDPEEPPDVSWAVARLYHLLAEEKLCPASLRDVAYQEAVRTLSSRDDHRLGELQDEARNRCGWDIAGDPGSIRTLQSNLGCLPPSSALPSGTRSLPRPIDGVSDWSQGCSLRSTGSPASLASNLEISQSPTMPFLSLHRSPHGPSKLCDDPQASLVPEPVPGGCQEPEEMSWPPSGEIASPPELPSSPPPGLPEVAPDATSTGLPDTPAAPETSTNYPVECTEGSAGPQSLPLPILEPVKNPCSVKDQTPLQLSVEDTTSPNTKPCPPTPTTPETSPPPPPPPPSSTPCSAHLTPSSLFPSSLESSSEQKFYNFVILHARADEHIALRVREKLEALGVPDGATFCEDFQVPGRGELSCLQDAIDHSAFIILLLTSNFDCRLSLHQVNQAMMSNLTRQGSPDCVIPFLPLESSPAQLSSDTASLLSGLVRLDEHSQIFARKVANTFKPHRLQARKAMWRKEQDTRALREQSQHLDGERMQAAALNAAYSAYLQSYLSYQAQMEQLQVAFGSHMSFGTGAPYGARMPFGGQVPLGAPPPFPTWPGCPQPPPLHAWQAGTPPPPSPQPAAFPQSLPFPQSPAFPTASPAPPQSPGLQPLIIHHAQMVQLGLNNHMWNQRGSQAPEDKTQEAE
# UniProt Q96DC7: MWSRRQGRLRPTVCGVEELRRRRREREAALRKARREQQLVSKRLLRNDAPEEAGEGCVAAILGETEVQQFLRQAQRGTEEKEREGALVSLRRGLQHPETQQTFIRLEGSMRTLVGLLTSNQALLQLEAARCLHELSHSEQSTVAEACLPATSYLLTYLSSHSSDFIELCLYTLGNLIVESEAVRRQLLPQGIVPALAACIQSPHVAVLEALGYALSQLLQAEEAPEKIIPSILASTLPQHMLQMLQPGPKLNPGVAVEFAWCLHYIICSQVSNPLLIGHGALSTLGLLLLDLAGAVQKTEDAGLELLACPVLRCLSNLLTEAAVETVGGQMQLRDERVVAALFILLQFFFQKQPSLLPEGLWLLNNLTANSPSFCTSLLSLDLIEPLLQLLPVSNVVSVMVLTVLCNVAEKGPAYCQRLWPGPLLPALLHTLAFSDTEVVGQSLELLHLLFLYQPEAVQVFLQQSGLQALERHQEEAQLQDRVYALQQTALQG
# UniProt Q15363: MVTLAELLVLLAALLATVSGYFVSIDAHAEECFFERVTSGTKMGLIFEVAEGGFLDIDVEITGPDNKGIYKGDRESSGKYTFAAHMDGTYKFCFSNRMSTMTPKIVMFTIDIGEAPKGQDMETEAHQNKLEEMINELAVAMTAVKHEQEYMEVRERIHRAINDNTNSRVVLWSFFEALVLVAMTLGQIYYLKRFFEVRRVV
# UniProt Q12893: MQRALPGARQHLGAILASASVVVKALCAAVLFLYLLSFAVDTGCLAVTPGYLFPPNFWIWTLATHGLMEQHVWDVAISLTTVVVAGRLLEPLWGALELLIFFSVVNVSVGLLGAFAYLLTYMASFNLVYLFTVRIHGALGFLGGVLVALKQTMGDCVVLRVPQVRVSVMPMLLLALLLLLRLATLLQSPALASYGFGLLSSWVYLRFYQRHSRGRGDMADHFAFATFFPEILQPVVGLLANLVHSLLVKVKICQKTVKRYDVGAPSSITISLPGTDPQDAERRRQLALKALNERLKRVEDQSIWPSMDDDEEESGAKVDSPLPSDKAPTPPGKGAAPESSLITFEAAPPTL
# UniProt Q53S58: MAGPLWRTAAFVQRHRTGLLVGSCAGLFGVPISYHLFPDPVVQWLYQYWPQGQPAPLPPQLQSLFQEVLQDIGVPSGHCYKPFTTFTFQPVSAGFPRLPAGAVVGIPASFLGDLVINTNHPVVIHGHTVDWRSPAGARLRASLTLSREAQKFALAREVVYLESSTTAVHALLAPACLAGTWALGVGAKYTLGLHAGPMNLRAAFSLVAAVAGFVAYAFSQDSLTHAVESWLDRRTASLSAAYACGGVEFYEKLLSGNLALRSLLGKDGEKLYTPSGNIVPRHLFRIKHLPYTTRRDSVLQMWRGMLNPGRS
# UniProt O00142: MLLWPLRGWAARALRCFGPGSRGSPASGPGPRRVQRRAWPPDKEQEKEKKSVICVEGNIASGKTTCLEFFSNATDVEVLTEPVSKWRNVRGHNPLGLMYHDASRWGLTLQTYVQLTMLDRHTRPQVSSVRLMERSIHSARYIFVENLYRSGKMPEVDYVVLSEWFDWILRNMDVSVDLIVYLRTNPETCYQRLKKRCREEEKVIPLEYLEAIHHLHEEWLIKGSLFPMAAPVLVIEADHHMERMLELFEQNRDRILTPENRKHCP
# UniProt Q9BRN9: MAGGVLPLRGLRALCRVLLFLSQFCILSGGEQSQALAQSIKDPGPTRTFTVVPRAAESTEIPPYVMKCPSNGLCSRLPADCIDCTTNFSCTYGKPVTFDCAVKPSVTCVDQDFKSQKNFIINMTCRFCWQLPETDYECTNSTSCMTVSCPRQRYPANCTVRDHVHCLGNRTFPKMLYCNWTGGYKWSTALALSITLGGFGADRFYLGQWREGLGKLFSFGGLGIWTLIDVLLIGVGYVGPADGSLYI
# UniProt Q8N131: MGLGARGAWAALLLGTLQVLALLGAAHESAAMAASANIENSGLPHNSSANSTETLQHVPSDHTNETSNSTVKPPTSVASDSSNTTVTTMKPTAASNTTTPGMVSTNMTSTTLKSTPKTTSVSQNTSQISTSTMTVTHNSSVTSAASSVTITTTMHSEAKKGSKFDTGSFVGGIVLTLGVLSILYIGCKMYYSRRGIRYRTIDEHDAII
# UniProt Q96EK4, whole entry, looked up: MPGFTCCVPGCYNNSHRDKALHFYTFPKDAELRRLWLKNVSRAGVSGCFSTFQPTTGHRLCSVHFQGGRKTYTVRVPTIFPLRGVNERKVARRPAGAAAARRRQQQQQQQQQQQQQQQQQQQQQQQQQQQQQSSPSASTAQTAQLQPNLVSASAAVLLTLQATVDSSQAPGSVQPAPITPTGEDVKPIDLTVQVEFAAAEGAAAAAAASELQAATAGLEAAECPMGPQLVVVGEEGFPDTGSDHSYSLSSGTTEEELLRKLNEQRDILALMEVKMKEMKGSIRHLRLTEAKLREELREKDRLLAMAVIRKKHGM
# UniProt Q9NX00: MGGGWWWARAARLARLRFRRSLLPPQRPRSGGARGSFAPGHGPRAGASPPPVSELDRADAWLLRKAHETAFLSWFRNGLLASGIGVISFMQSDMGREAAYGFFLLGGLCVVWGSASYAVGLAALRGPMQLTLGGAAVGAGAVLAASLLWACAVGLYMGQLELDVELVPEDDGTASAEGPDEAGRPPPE
# The list shows a part of the results.
# Key:
# Assay in all cases: log2 fold change, soluble protein after heating vs DMSO (PISA); higher = thermal stabilisation; K562 lysate, 10 uM; active = over 0.2 and 3.5 SD of the protein, either way, in both replicates (recomputed)
# alvocidib = compound: CN1CC[C@H](c2c(O)cc(O)c3c(=O)cc(-c4ccccc4Cl)oc23)[C@H](O)C1 [alvocidib]
# Method in brief: (§1)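 To prepare the extract, K562 pellets were dounce-homogenised in PBS pH 7.4 with 1 mM MgCl2, giving crude material at 1 mg/mL protein. This was treated with 10 μM compound for 30 min, then heated in aliquots for 3 min over 48°C-58°C before pooling and addition of NP-40 to 0.5% at 4°C. Centrifugation at 21,000xg for 90 min left soluble protein in the supernatant, which TMTpro 16plex LC-MS/MS quantified with equalised channel sums. Results are log-two fold changes in thermal stability compared with solvent controls, from duplicates.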
# Tubastatin A = compound: CN1CCc2c(c3ccccc3n2Cc2ccc(C(=O)NO)cc2)C1 [Tubastatin A]
# Method in brief: as §1
# [1] = compound: CNC(=O)C1=CC=CC=C1NC2=NC(=NC=C2Cl)NC3=C(C=C(C=C3)N4CCOCC4)OC
# Method in brief: as §1
# defactinib = compound: CNC(=O)c1ccc(Nc2ncc(C(F)(F)F)c(NCc3nccnc3N(C)S(C)(=O)=O)n2)cc1 [defactinib]
# Method in brief: as §1
# [2] = compound: CNc1nc(-c2ccc3c(N)n[nH]c3c2)cc(N2C[C@@H](C(=O)NC3CCCCC3)CC[C@H]2C)n1
# Method in brief: as §1
# encorafenib = compound: COC(=O)N[C@@H](C)CNc1nccc(-c2cn(C(C)C)nc2-c2cc(Cl)cc(NS(C)(=O)=O)c2F)n1 [encorafenib]
# Method in brief: as §1
# [3] = compound: COC(=O)[C@H](CCSC)NC(=O)C1=C(C=C(C=C1)NC[C@H](CS)N)C2=CC=CC=C2
# Method in brief: as §1
# alisertib = compound: COc1cc(Nc2ncc3c(n2)-c2ccc(Cl)cc2C(c2c(F)cccc2OC)=NC3)ccc1C(=O)O [alisertib]
# Method in brief: as §1
# [4] = compound: COc1cc2nc(-c3cc(F)ccc3O)nc(N[C@@H]3CNC[C@H]3C(C)(C)O)c2cc1OC
# Method in brief: as §1
# gefitinib = compound: COc1cc2ncnc(Nc3ccc(F)c(Cl)c3)c2cc1OCCCN1CCOCC1 [gefitinib]
# Method in brief: as §1
# lapatinib = compound: CS(=O)(=O)CCNCc1ccc(-c2ccc3ncnc(Nc4ccc(OCc5cccc(F)c5)c(Cl)c4)c3c2)o1 [lapatinib]
# Method in brief: as §1
# pictilisib = compound: CS(=O)(=O)N1CCN(Cc2cc3nc(-c4cccc5[nH]ncc45)nc(N4CCOCC4)c3s2)CC1 [pictilisib]
# Method in brief: as §1
# crizotinib = compound: C[C@@H](Oc1cc(-c2cnn(C3CCNCC3)c2)cnc1N)c1c(Cl)ccc(F)c1Cl [crizotinib]
# Method in brief: as §1
# [5] = compound: C[C@H](C1=CC=C(C=C1)C(=O)NC2=C3C=CNC3=NC=C2)N
# Method in brief: as §1
# duvelisib = compound: C[C@H](Nc1ncnc2nc[nH]c12)c1cc2cccc(Cl)c2c(=O)n1-c1ccccc1 [duvelisib]
# Method in brief: as §1
# gandotinib = compound: Cc1cc(Nc2cc(CN3CCOCC3)c3nc(C)c(Cc4ccc(Cl)cc4F)n3n2)n[nH]1 [gandotinib]
# Method in brief: as §1
# tozasertib = compound: Cc1cc(Nc2cc(N3CCN(C)CC3)nc(Sc3ccc(NC(=O)C4CC4)cc3)n2)n[nH]1 [tozasertib]
# Method in brief: as §1
# doramapimod = compound: Cc1ccc(-n2nc(C(C)(C)C)cc2NC(=O)Nc2ccc(OCCN3CCOCC3)c3ccccc23)cc1 [doramapimod]
# Method in brief: as §1
# bafetinib = compound: Cc1ccc(NC(=O)c2ccc(CN3CC[C@H](N(C)C)C3)c(C(F)(F)F)c2)cc1Nc1nccc(-c2cncnc2)n1 [bafetinib]
# Method in brief: as §1
# [6] = compound: Cc1cccc(CC(=O)N2CCc3c2ccc(-c2cn(C)c4ncnc(N)c24)c3F)n1
# Method in brief: as §1
Target,log2 fold change (alvocidib),log2 fold change (Tubastatin A),log2 fold change [1],log2 fold change (defactinib),log2 fold change [2],log2 fold change (encorafenib),log2 fold change [3],log2 fold change (alisertib),log2 fold change [4],log2 fold change (gefitinib),log2 fold change (lapatinib),log2 fold change (pictilisib),log2 fold change (crizotinib),log2 fold change [5],log2 fold change (duvelisib),log2 fold change (gandotinib),log2 fold change (tozasertib),log2 fold change (doramapimod),log2 fold change (bafetinib),log2 fold change [6]
THUMPD1 (UniProt Q9NXG2),inactive: -0.001,inactive: 0.014,inactive: 0.007,inactive: 0.006,inactive: -0.031,inactive: -0.002,inactive: -0.057,inactive: -0.007,inactive: 0.012,inactive: -0.009,inactive: -0.013,inactive: 0.015,inactive: -0.034,inactive: -0.055,inactive: 0.023,inactive: 0.011,inactive: 0.005,inactive: 0.081,inactive: 0.007,inactive: -0.007
TGOLN2 isoform 7 (UniProt O43493),inactive: -0.053,inactive: 0.003,inactive: -0.052,inactive: 0.005,inactive: 0.045,inactive: 0.014,inactive: -0.031,inactive: -0.059,inactive: 0.02,inactive: -0.048,inactive: -0.007,inactive: 0.001,inactive: 0.045,inactive: -0.051,inactive: 0.021,inactive: 0.034,inactive: -0.065,inactive: -0.03,inactive: 0.032,inactive: 0.034
TIMMDC1 (UniProt Q9NPL8),inactive: 0.015,inactive: 0.036,inactive: 0.085,inactive: -0.013,inactive: 0.048,inactive: -0.02,inactive: -0.01,inactive: -0.108,inactive: -0.015,inactive: -0.048,inactive: -0.007,inactive: -0.014,inactive: 0.018,inactive: -0.047,inactive: 0.027,inactive: 0.027,inactive: -0.009,inactive: -0.027,inactive: -0.046,inactive: 0.062
TMEM126A (UniProt Q9H061),inactive: 0.046,inactive: 0.073,inactive: 0.101,inactive: -0.002,inactive: -0.038,inactive: 0.022,inactive: 0.14,inactive: -0.031,inactive: -0.012,inactive: 0.01,inactive: -0.028,inactive: -0.011,inactive: 0.06,inactive: 0.006,inactive: 0.075,inactive: 0.013,inactive: 0.016,inactive: -0.073,inactive: -0.033,inactive: 0.054
TMEM120A (UniProt Q9BXJ8),inactive: 0.049,inactive: 0.041,inactive: 0.032,inactive: 0.166,inactive: 0.157,inactive: 0.021,inactive: 0.296,inactive: -0.048,inactive: 0.013,inactive: 0.06,inactive: -0.079,inactive: -0.134,inactive: -0.093,inactive: -0.001,inactive: 0.026,inactive: -0.217,inactive: 0.068,inactive: -0.022,inactive: -0.054,inactive: 0.194
TMEM147 (UniProt Q9BVK8),inactive: -0.125,inactive: -0.031,inactive: -0.051,–,–,inactive: 0.154,inactive: -0.04,inactive: 0.021,inactive: -0.012,inactive: 0.081,inactive: -0.089,inactive: 0.024,inactive: -0.025,inactive: -0.269,–,inactive: 0.08,inactive: -0.214,inactive: 0.123,inactive: -0.084,inactive: 0.175
TICAM1 (UniProt Q8IUC6),inactive: -0.065,inactive: -0.019,inactive: -0.06,–,inactive: 0.01,–,–,inactive: 0.03,inactive: -0.009,inactive: -0.022,inactive: 0.019,inactive: 0.03,inactive: -0.091,inactive: -0.153,inactive: 0.026,inactive: 0.139,–,inactive: -0.013,inactive: -0.035,inactive: 0.077
TMCO6 isoform 2 (UniProt Q96DC7),inactive: -0.077,inactive: -0.079,inactive: 0.04,inactive: 0.053,inactive: -0.031,inactive: 0.063,inactive: -0.058,inactive: -0.132,inactive: -0.097,inactive: 0.106,inactive: -0.14,inactive: -0.025,inactive: -0.149,inactive: -0.149,inactive: 0.049,inactive: -0.151,inactive: -0.117,inactive: 0.009,inactive: -0.06,inactive: 0.155
TMED2 (UniProt Q15363),inactive: 0.006,inactive: 0.044,inactive: 0.009,inactive: 0,inactive: 0.01,inactive: 0.028,inactive: -0.039,inactive: 0.018,inactive: -0.019,inactive: 0.017,inactive: -0.031,inactive: -0.034,inactive: -0.038,inactive: -0.033,inactive: -0.031,inactive: 0.017,inactive: 0.008,inactive: -0.009,inactive: -0.02,inactive: 0.013
TJP1 (UniProt G3V1L9),inactive: -0.09,inactive: -0.042,inactive: 0.124,inactive: 0.241,inactive: 0.119,–,–,inactive: -0.079,–,inactive: -0.215,–,inactive: 0.157,inactive: 0.068,inactive: 0.027,inactive: -0.042,inactive: 0.071,–,inactive: -0.209,inactive: -0.047,inactive: 0.059
TMEM115 (UniProt Q12893),inactive: -0.018,inactive: 0.036,inactive: -0.045,inactive: -0.048,inactive: 0.128,inactive: 0.027,inactive: 0.04,inactive: 0.058,inactive: 0.003,inactive: -0.075,inactive: -0.062,inactive: -0.046,inactive: -0.034,inactive: -0.025,inactive: 0.058,inactive: 0.036,inactive: -0.005,inactive: 0.073,inactive: -0.058,inactive: -0.028
TMEM177 (UniProt Q53S58),inactive: 0.042,inactive: 0.05,inactive: 0.075,inactive: -0.009,–,inactive: 0.019,inactive: 0.153,–,inactive: 0.002,–,inactive: 0.018,inactive: 0.002,inactive: 0.053,inactive: -0.005,–,inactive: -0.125,inactive: -0.016,inactive: -0.056,inactive: -0.059,inactive: -0.013
TK2 isoform 6 (UniProt O00142),inactive: 0.045,inactive: 0.064,inactive: 0.008,inactive: 0.02,inactive: 0.08,inactive: -0.079,inactive: -0.034,–,inactive: -0.069,–,inactive: -0.065,inactive: 0.034,inactive: -0.06,inactive: 0.022,inactive: 0.075,inactive: 0.075,inactive: 0.032,inactive: 0.061,inactive: -0.143,inactive: 0.061
TM2D3 (UniProt Q9BRN9),inactive: -0.291,inactive: -0.125,inactive: 0.008,–,–,inactive: -0.116,inactive: -0.116,–,–,–,–,inactive: 0.069,–,active: -0.836,–,inactive: 0.329,inactive: -0.075,–,inactive: 0.048,inactive: 0.348
TMEM123 (UniProt Q8N131),inactive: -0.027,inactive: 0.046,inactive: -0.04,inactive: -0.105,inactive: -0.273,inactive: -0.012,inactive: -0.045,inactive: 0.023,inactive: -0.022,inactive: 0.023,inactive: -0.105,inactive: 0.047,–,inactive: -0.005,inactive: 0.067,inactive: 0.033,inactive: 0.068,–,inactive: -0.116,inactive: -0.02
THAP11 (UniProt Q96EK4),inactive: -0.102,inactive: -0.025,inactive: 0.139,inactive: 0.029,inactive: 0.096,inactive: 0.101,inactive: 0.052,inactive: 0.044,inactive: 0.099,inactive: 0.031,inactive: 0.051,inactive: 0.088,–,inactive: 0.078,inactive: -0.001,inactive: 0.169,inactive: -0.024,–,inactive: 0.057,inactive: 0.024
TMEM160 (UniProt Q9NX00),inactive: -0.05,inactive: 0.078,inactive: -0.065,inactive: 0.106,inactive: -0.05,inactive: 0.095,inactive: -0.047,inactive: 0.102,inactive: -0.007,inactive: 0.023,inactive: 0.024,inactive: 0.052,inactive: 0.087,inactive: -0.074,inactive: -0.036,inactive: 0.066,inactive: 0.091,inactive: -0.096,inactive: -0.034,inactive: 0.033

# Rewritten with tabs: entries from further up
Target	log2 fold change (alvocidib)	log2 fold change (Tubastatin A)	log2 fold change [1]	log2 fold change (defactinib)	log2 fold change [2]	log2 fold change (encorafenib)	log2 fold change [3]	log2 fold change (alisertib)	log2 fold change [4]	log2 fold change (gefitinib)	log2 fold change (lapatinib)	log2 fold change (pictilisib)	log2 fold change (crizotinib)	log2 fold change [5]	log2 fold change (duvelisib)	log2 fold change (gandotinib)	log2 fold change (tozasertib)	log2 fold change (doramapimod)	log2 fold change (bafetinib)	log2 fold change [6]
TGOLN2 isoform 7 (UniProt O43493)	inactive: -0.053	inactive: 0.003	inactive: -0.052	inactive: 0.005	inactive: 0.045	inactive: 0.014	inactive: -0.031	inactive: -0.059	inactive: 0.02	inactive: -0.048	inactive: -0.007	inactive: 0.001	inactive: 0.045	inactive: -0.051	inactive: 0.021	inactive: 0.034	inactive: -0.065	inactive: -0.03	inactive: 0.032	inactive: 0.034
TIMMDC1 (UniProt Q9NPL8)	inactive: 0.015	inactive: 0.036	inactive: 0.085	inactive: -0.013	inactive: 0.048	inactive: -0.02	inactive: -0.01	inactive: -0.108	inactive: -0.015	inactive: -0.048	inactive: -0.007	inactive: -0.014	inactive: 0.018	inactive: -0.047	inactive: 0.027	inactive: 0.027	inactive: -0.009	inactive: -0.027	inactive: -0.046	inactive: 0.062
TMEM147 (UniProt Q9BVK8)	inactive: -0.125	inactive: -0.031	inactive: -0.051	–	–	inactive: 0.154	inactive: -0.04	inactive: 0.021	inactive: -0.012	inactive: 0.081	inactive: -0.089	inactive: 0.024	inactive: -0.025	inactive: -0.269	–	inactive: 0.08	inactive: -0.214	inactive: 0.123	inactive: -0.084	inactive: 0.175
TMED2 (UniProt Q15363)	inactive: 0.006	inactive: 0.044	inactive: 0.009	inactive: 0	inactive: 0.01	inactive: 0.028	inactive: -0.039	inactive: 0.018	inactive: -0.019	inactive: 0.017	inactive: -0.031	inactive: -0.034	inactive: -0.038	inactive: -0.033	inactive: -0.031	inactive: 0.017	inactive: 0.008	inactive: -0.009	inactive: -0.02	inactive: 0.013
THAP11 (UniProt Q96EK4)	inactive: -0.102	inactive: -0.025	inactive: 0.139	inactive: 0.029	inactive: 0.096	inactive: 0.101	inactive: 0.052	inactive: 0.044	inactive: 0.099	inactive: 0.031	inactive: 0.051	inactive: 0.088	–	inactive: 0.078	inactive: -0.001	inactive: 0.169	inactive: -0.024	–	inactive: 0.057	inactive: 0.024
